Experimental data published in the supplement of paper PMC4604168 (melanoma cell lines).
The list shows a part of the results. Many values rest on one well or one pass, so single values are uncertain.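 Cells were imaged in 1,536-well plates, and nuclei stained with an antibody against cleaved PARP were counted against all DNA-stained nuclei to give the apoptosis fraction. Screening doses were chosen to leave most cells alive, and resting and induced cleaved-PARP levels differ strongly between cell lines.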

Experiments:
Assay in all cases: cleaved PARP positive nuclei fraction relative to DMSO control; melanoma cells; higher = more apoptosis
Conditions in all cases: library dose: low library concentration; 72 h
[1] = tested on: WM115
[2] = tested on: WM1716
[3] = tested on: WM1745
[4] = tested on: WM3526
[5] = tested on: WM3619
[6] = tested on: WM451Lu

SMILES	cleaved PARP positive nuclei fraction [1] [%]	cleaved PARP positive nuclei fraction [2] [%]	cleaved PARP positive nuclei fraction [3] [%]	cleaved PARP positive nuclei fraction [4] [%]	cleaved PARP positive nuclei fraction [5] [%]	cleaved PARP positive nuclei fraction [6] [%]
CCN(CC)CCNC(=O)c1c(C)[nH]c(/C=C2\C(=O)Nc3ccc(F)cc32)c1C [sunitinib] + Cn1nnc2c(C(N)=O)ncn2c1=O [temozolomide] (first compound 0.4 µM, partner dose 2 µM)	72.2	36	116	94.2	81.7	94.3
CC(=O)O[C@@]12CO[C@@H]1C[C@H](O)[C@@]1(C)C(=O)[C@H](O)C3=C(C)[C@@H](OC(=O)[C@H](O)[C@@H](NC(=O)OC(C)(C)C)c4ccccc4)C[C@@](O)([C@@H](OC(=O)c4ccccc4)[C@H]21)C3(C)C [Docetaxel] + COc1ccc(COc2ccc(Cc3cnc(N)nc3N)cc2OC)cc1 [GW2580] (first compound 0.0001 µM, partner dose 1 µM)	121	216	335	293	215	170
NC1(c2ccc(-c3nc4ccn5c(=O)[nH]nc5c4cc3-c3ccccc3)cc2)CCC1 + Nc1ncn([C@H]2C[C@H](O)[C@@H](CO)O2)c(=O)n1 [decitabine] (first compound 0.4 µM, partner dose 0.1 µM)	231	524	104	112	89.1	115
Cn1sc(=O)n(Cc2ccccc2)c1=O + CCN(CC)CCNC(=O)c1c(C)[nH]c(/C=C2\C(=O)Nc3ccc(F)cc32)c1C [sunitinib] (first compound 0.4 µM, partner dose 0.4 µM)	79.4	28.5	237	31.2	59.9	59.1
CC(=O)O[C@@]12CO[C@@H]1C[C@H](O)[C@@]1(C)C(=O)[C@H](O)C3=C(C)[C@@H](OC(=O)[C@H](O)[C@@H](NC(=O)OC(C)(C)C)c4ccccc4)C[C@@](O)([C@@H](OC(=O)c4ccccc4)[C@H]21)C3(C)C [Docetaxel] + Nc1ncn([C@H]2C[C@H](O)[C@@H](CO)O2)c(=O)n1 [decitabine] (first compound 0.0001 µM, partner dose 0.1 µM)	469	496	153	84.5	131	142
CS(=O)(=O)c1ccc(C(=O)Nc2ccc(Cl)c(-c3ccccn3)c2)c(Cl)c1 [vismodegib] + CCCCCCCCCCCC1=C(O)C(=O)C=C(O)C1=O [Embelin] (first compound 1 µM, partner dose 1.2 µM)	148	66.8	78	70.1	89.5	74.2
CS(=O)(=O)c1ccc(C(=O)Nc2ccc(Cl)c(-c3ccccn3)c2)c(Cl)c1 [vismodegib] + C[C@]1(c2nc3c(C(N)=O)cccc3[nH]2)CCCN1 [Veliparib] (first compound 1 µM, partner dose 1.4 µM)	99	147	94.5	38.3	81.3	39
CC(=O)O[C@@]12CO[C@@H]1C[C@H](O)[C@@]1(C)C(=O)[C@H](O)C3=C(C)[C@@H](OC(=O)[C@H](O)[C@@H](NC(=O)OC(C)(C)C)c4ccccc4)C[C@@](O)([C@@H](OC(=O)c4ccccc4)[C@H]21)C3(C)C [Docetaxel] + O=C(O)c1ccc2c(c1)nc(Nc1cccc(Cl)c1)c1ccncc12 [CX4945] (first compound 0.0001 µM, partner dose 0.4 µM)	776	796	147	181	146	50.7
CC(=O)O[C@@]12CO[C@@H]1C[C@H](O)[C@@]1(C)C(=O)[C@H](O)C3=C(C)[C@@H](OC(=O)[C@H](O)[C@@H](NC(=O)OC(C)(C)C)c4ccccc4)C[C@@](O)([C@@H](OC(=O)c4ccccc4)[C@H]21)C3(C)C [Docetaxel] + Cn1c(=O)n(-c2ccc(C(C)(C)C#N)cc2)c2c3cc(-c4cnc5ccccc5c4)ccc3ncc21 [NVP-BEZ235] (first compound 0.0001 µM, partner dose 0.004 µM)	349	121	241	269	128	144
NC(=O)c1ccc(N(C(N)=O)c2c(F)cccc2F)nc1-c1ccc(F)cc1F + CCCCCCCCc1ccc(CCC(N)(CO)CO)cc1 [fingolimod] (first compound 0.4 µM, partner dose 2 µM)	82.1	172	171	93.8	132	84.3
C[C@]1(O)C[C@@H](c2nc(-c3ccc4ccc(-c5ccccc5)nc4c3)c3c(N)nccn32)C1 + Clc1ccc(Nc2nnc(Cc3ccncc3)c3ccccc23)cc1 [vatalanib] (first compound 0.4 µM, partner dose 2 µM)	116	115	117	21.1	95.1	51.7
C[C@@H](N)c1ccc(C(=O)Nc2ccnc3[nH]ccc23)cc1 + Nc1nc(F)nc2c1ncn2[C@@H]1O[C@H](CO)[C@@H](O)[C@@H]1O [fludarabine] (first compound 0.4 µM, partner dose 0.2 µM)	220	199	115	391	92.4	146

2 records picked at random from the list so far, as already listed:
SMILES	cleaved PARP positive nuclei fraction [1] [%]	cleaved PARP positive nuclei fraction [2] [%]	cleaved PARP positive nuclei fraction [3] [%]	cleaved PARP positive nuclei fraction [4] [%]	cleaved PARP positive nuclei fraction [5] [%]	cleaved PARP positive nuclei fraction [6] [%]
CS(=O)(=O)c1ccc(C(=O)Nc2ccc(Cl)c(-c3ccccn3)c2)c(Cl)c1 [vismodegib] + C[C@]1(c2nc3c(C(N)=O)cccc3[nH]2)CCCN1 [Veliparib] (first compound 1 µM, partner dose 1.4 µM)	99	147	94.5	38.3	81.3	39
C[C@]1(O)C[C@@H](c2nc(-c3ccc4ccc(-c5ccccc5)nc4c3)c3c(N)nccn32)C1 + Clc1ccc(Nc2nnc(Cc3ccncc3)c3ccccc23)cc1 [vatalanib] (first compound 0.4 µM, partner dose 2 µM)	116	115	117	21.1	95.1	51.7
